These are yes or no findings as the source states them, for the method shown. Some entries that bind do so weakly or less than the wild type.
Columns and labels:
[1] = biological target: FcγRIA (UniProt P12314); assay: flow cytometry on cells; as a1, but with the CRP-LPC complex (CRP preincubated with lysophosphatidylcholine, 1:1 w:w) instead of CRP alone, up to 10 μg/ml, 30 min at room temperature; non-specific binding from mock-transfected cells; Kd and Bmax by PRISM; only the binder purified
[2] = biological target: FcγRIIA (UniProt P12318); assay: as above
[3] = biological target: FcγRIA (UniProt P12314); assay: flow cytometry on cells; 293FT cells transfected with FcγRIA or FcγRIIA, incubated with CRP alone (up to 10 μg/ml) for 30 min at room temperature in DMEM; cell-bound CRP labelled with anti-CRP mouse IgG (clone CRP-8) and FITC goat anti-mouse; non-specific binding from mock-transfected cells; Kd and Bmax by PRISM; only the binder purified
[4] = biological target: FcγRIIA (UniProt P12318); assay: as above

Amino acid sequences for entries named in this document (tags omitted). Residues count along the entry.
UniProt P12314, residues 16-374: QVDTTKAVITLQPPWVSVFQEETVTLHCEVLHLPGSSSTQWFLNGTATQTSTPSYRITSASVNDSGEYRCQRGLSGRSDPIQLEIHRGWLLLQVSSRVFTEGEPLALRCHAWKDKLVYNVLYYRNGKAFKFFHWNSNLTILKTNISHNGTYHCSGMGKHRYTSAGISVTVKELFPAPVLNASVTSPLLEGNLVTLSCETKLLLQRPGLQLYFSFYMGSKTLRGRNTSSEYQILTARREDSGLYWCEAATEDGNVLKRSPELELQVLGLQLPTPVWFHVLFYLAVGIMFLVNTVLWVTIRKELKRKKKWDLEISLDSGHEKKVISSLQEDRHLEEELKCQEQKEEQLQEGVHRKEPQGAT
UniProt P12318, residues 34-317: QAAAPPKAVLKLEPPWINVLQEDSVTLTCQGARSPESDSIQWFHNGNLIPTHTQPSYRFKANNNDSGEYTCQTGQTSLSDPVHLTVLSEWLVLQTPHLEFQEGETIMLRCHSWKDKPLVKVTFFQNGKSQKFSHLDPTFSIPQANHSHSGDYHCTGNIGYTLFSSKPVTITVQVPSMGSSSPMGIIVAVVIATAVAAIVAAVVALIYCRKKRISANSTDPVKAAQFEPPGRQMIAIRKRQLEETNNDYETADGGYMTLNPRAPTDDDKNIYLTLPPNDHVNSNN

binding [1]: binds
binding [2]: binds
binding [3]: binds
binding [4]: binds
B1: human recombinant C-reactive protein (protein, UniProt P02741-1 19-224)
chain: QTDMSRKAFVFPKESDTSYVSLKAPLTKPLKAFTVCLHFYTELSSTRGYSIFSYATKRQDNEILIFWSKDIGYSFTVGGSEILFEVPEVTVAPVHICTSWESASGIVEFWVDGKPRVRKSLKKGYTVGAEASIILGQEQDSFGGNFEGSQSLVGDIGNVNMWDFVLSPDEINTIYLGGPFSPNVLNWRALKYEVQGEVFTKPQLWP
